Measurements published in publication PMC9547808.
No constants are given. Whether binding was seen depends on the method and setting. Binding seen in cells or lysates may run through a third protein. Some results given as binding are weak or reduced against the parent protein; the word gives no strength.

Protein sequences, listed by entry. Tags and fused reporters are not part of them. Residues count along the entry.
UniProt P12023, residues 18-770: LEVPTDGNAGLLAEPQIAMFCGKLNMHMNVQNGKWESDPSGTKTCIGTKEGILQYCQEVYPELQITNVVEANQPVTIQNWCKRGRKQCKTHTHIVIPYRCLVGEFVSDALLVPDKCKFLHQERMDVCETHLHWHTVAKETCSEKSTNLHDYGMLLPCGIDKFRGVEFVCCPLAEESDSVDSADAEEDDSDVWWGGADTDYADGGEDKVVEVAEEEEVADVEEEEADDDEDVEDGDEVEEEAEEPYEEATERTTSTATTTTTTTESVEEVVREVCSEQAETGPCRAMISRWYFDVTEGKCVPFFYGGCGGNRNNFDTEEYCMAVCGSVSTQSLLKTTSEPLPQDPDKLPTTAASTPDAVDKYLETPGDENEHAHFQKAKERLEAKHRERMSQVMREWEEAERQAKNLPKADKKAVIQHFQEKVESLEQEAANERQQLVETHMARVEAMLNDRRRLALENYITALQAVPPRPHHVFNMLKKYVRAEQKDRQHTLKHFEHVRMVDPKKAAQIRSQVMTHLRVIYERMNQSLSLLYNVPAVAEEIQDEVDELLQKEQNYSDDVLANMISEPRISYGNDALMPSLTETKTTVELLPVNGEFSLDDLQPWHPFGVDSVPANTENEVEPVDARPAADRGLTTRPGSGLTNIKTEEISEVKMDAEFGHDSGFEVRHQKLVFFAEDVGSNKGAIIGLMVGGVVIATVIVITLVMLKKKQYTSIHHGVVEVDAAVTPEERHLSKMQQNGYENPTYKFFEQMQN

How the values were obtained:
[1] = target: amyloid-beta precursor protein (APP), endogenous mouse (mouse (endogenous in HT-22 and in mouse hippocampus)) (UniProt P12023); experiment: proximity ligation; in situ Duolink PLA on fixed control and CHCHD6 KO HT-22 cells with anti-APP and anti-CHCHD6 antibodies
[2] = target: amyloid-beta precursor protein (APP), endogenous mouse (mouse (endogenous in HT-22 and in mouse hippocampus)) (UniProt P12023); experiment: proximity ligation; in situ Duolink PLA on mouse brain sections (hippocampus; WT, APP^NL-G-F and 5XFAD mice) with anti-APP and anti-CHCHD6 antibodies
[3] = target: amyloid-beta precursor protein (APP), endogenous mouse (mouse (endogenous in HT-22 and in mouse hippocampus)) (UniProt P12023); experiment: co-IP; total protein lysates of control and CHCHD6 KO HT-22 cells (50 mM Tris-HCl pH 7.5, 150 mM NaCl, 1% Triton X-100); IP with anti-APP antibody overnight at 4 °C, protein A/G beads, WB

Measured: binding

B1: coiled-coil-helix-coiled-coil-helix domain containing 6 (CHCHD6), endogenous mouse (protein, UniProt Q91VN4 1-273)
chain: MGSAESAEARRVSFEMDEEERVRVLQGIRLSESVVNRMKDCSQPSAGEQLVPGFGPSSSAPVPTVPLPAISVPTVPAPTTPVPTAPSSSVRGLPGGTCKGPLTDVKVPSAESGGGLQSSAVKEDLKKFQQEQLAVQDEMVRVAKKEKEAAEKHLKASLPKKKASLTHEQQQSARLARELEDREAELSRRDTFYKEQQGRIQEKNAELYKLSSQQFHEAASKAESTIKPRRVEPVCSGLQAQILRCYRDHLHEVLLCSDLVKAYQHCVSTARKG
binds: all assays above
